How the values were obtained:
[1] = test system: E. coli SOLR cells carrying luciferase insert; test: Bacterial in vivo bioluminescence spectra; type: cell-based, Echerichia coli; settings: bacterial suspension, D-luciferin in sodium citrate buffer pH 5.0
[2] = In vitro bioluminescence spectra of luciferase extracts; type: biochemical; settings: for in vitro bioluminescence spectrum peak (λmax): 0.1 M Tris-HCl buffer, pH 8.0; for half bandwidth of bioluminescence spectrum: in vitro spectrum

Molecule	in vivo bioluminescence spectrum peak (λmax) [1]	in vitro bioluminescence spectrum peak (λmax) [2]	half bandwidth of bioluminescence spectrum [2]	blue shift of in vitro spectrum in relation to native enzyme from P. hirtus head lanterns ([2]; in part due to distinct equipment)	shift of spectrum peak in relation to PvGR luciferase ([2]; in vivo and in vitro spectra)
Phrixothrix vivianii green light-emitting luciferase PvGR, recombinant, wild type, SEQ ID NO: 2 (Phrixothrix vivianii) (protein) MEEENIRHGERPRDIVHPGSAGQQLYQSLYKFASFPEAIIDAHTNEVISYAQIFETSCRLAVSIEQYGLNENNVVGVCSENNINFFNPVLAALYLGIPVATSNDMYTDGELTGHLNISKPTIMFSSKKALPLILRVQQNLSFIKKVVVIDSMYDINGVECVSTFVARYTDHTFDPLSFTPKDFDPLEKIALIMSSSGTTGLPKGVVLSHRSLTIRFVHSRDPIYGTRTVPQTSILSLVPFHHAFGMFTTLSYFVVGLKVVMLKKFEGALFLKTIQNYKIPTIVVAPPVMVFLAKSPLVDQYDLSSLTEVATGGAPLGKDVAEAVAKRLKLPGIIQGYGLTETCCAVMITPHNAVKTGSTGRPLPYIKAKVLDNATGKALGPGERGEICFQSEMIMKGYYNNPEATIDTIDKDGWLHSGDIGYYDEDGNFFIVDRLKELIKYKGYQVAPAELENLLLQHPSIADAGVTGVPDEFGGQLPAACVVLESGKTLTEKEVQDFIAAQVTPTKHLRGGVVFVDSIPKGPTGKLIRKELREIFAQRAPKSKL	549 nm	549 nm	70.5 nm		
PhRE: recombinant red light-emitting luciferase of Phrixothrix hirtus head lanterns, 546 amino acid residues (protein, listed as Phrixothrix hirtus) MEEENVVNGDRPRDLVFPGTAGLQLYQSLYKYSYITDGIIDAHTNEVISYAQIFETSCRLAVSLEKYGLDHNNVVAICSENNIHFFGPLIAALYQGIPMATSNDMYTEREMIGHLNISKPCLMFCSKKSLPFILKVQKHLDFLKRVIVIDSMYDINGVECVFSFDSRNTDHAFDPVKFNPKEFDPLERTALIMTSSGTTGLPKGVVISHRSITIRFVHSSDPIYGTRIAPDTSILAIAPFHHAFGLFTALAYFPVGLKIVMVKKFEGEFFLKTIQNYKIASIVVPPPIMVYLAKSPLVDEYNCSSLTEIASGGSPLGRDIADKVAKRLKVHGILQGYGLTETCSALILSPNDRELKKGAIGTPMPYVQVKVIDINTGKALGPREKGEICFKSQMLMKGYHNNPQATRDALDKDGWLHTGDLGYYDEDRFIYVVDRLKELIKYKGYQVAPAELENLLLQHPNISDAGVIEFRTNLLVNYLSACVVLEPGKTMTEKEVQDYIAELVTTTKHLRGGVVFIDSIPKGPTGKLMRNELRAIFAREQAKSKL	622 nm	622 nm	55 nm	6 nm	73 nm
